No constants are given. Whether binding was seen depends on the method and setting. Binding can be weak; no strength is given.
Assays:
[1] = molecular target: biotinylated cynomolgus 4-1BB (bio.c4-1BB) (cynomolgus monkey); test: SPR (ProteOn XPR36)
[2] = molecular target: cynomolgus FAP (cFAP) (cynomolgus monkey); test: SPR (ProteOn XPR36)

binding [1]	binding [2]	Binder
binds	–	bispecific construct #49 (designed binder) MRGSHHHHHHGSDLGEKLLVAALYGQDDEVRILLAAGADVNAKDQWGLTPLHKAALQGHLEIVEVLLKAGADVNAKDERGHTPLHWAARFGHLEIVEVLLKAGADVNAQDQKGYTPADLAALWGHEDIAEVLQKAAGSPTPTPTTPTPTPTTPTPTPTGSDLGKKLLVAANVGQDDEVRILLAAGADVNAKDYHGYTPLHHAATYGHLEIVEVLLKAGADVNAKDQTGLTPLHLAAAKGHLEIVEVLLKAGADVNAQDHHGYTPADLAAFVGHEDIAVVLQKLN
binds	–	bispecific construct #47 (designed binder) MRGSHHHHHHGSDLGEKLLVAALYGQDDEVRILLAAGADVNAKDQWGLTPLHKAALQGHLEIVEVLLKAGADVNAKDERGHTPLHWAARFGHLEIVEVLLKAGADVNAQDQKGYTPADLAALWGHEDIAEVLQKAAGSPTPTPTTPTPTPTTPTPTPTGSDLGKKLLEAARAGQDDEVRELLKAGADVNAKDTYGETPLHLAAWKGHLEIVEVLLKAGADVNAKDSIGITPLHVAAHHGHLEIVEVLLKAGADVNAKDKWGRTPLHLAALLGHLEIAEVLLKAGADVNAQDKSGKTPADLAADAGHDDIAEVLQKLN
binds	binds	Multispecific binding protein A (MpA) (designed binder) GSDLGKKLLEAARAGQDDEVRELLKAGADVNAKDYFSHTPLHLAARNGHLKIVEVLLKAGADVNAKDFAGKTPLHLAAADGHLEIVEVLLKAGADVNAQDIFGKTPADIAADAGHEDIAEVLQKAAGSPTPTPTTPTPTPTTPTPTPTGSDLGKKLLEAARAGQDDEVRELLKAGADVNAKDVLGWTPLHLAAFEGHLEIVEVLLKAGADVNAKDKKGWTPLQLAARTGHLEIVEVLLKAGADVNAKDHIGATPLHLAAWQGHPEIVEVLLKAGADVNAQDKSGKTPADLAADAGHEDIAEVLQKAAGSPTPTPTTPTPTPTTPTPTPTGSDLGQKLLKAAQEGQDDEVRELLKAGADVNAKDLRGITPLHVAAWQGHLEIVEVLLKAGADVNAKDSKGETPLHLAAFRGHLEIVEVLLKAGADVNAQDQQGETPADLAALAGHVDIAEVLQKAAGSPTPTPTTPTPTPTTPTPTPTGSDLGQKLLKAAQEGQDDEVRELLKAGADVNAKDLRGITPLHVAAWQGHLEIVEVLLKAGADVNAKDSKGETPLHLAAFRGHLEIVEVLLKAGADVNAQDQQGETPADLAALAGHVDIAEVLQKAAGSPTPTPTTPTPTPTTPTPTPTGSDLGKKLLEAARAGQDDEVRELLKAGADVNAKDYFSHTPLHLAARNGHLKIVEVLLKAGADVNAKDFAGKTPLHLAAADGHLEIVEVLLKAGADVNAQDIFGKTPADIAADAGHEDIAEVLQKAA
binds	–	bispecific construct #44 (designed binder) MRGSHHHHHHGSDLGEKLLVAALYGQDDEVRILLAAGADVNAKDQWGLTPLHKAALQGHLEIVEVLLKAGADVNAKDERGHTPLHWAARFGHLEIVEVLLKAGADVNAQDQKGYTPADLAALWGHEDIAEVLQKAAGSPTPTPTTPTPTPTTPTPTPTGSDLGQKLLKAAQEGQDDEVRELLKAGADVNAKDLRGITPLHVAAWQGHLEIVEVLLKAGADVNAKDSKGETPLHLAAFRGHLEIVEVLLKAGADVNAQDQQGETPADLAALAGHVDIAEVLQKLN
